Results: the supplement of paper PMC8256030
Structures can show the parent of a compound that is named as a salt. The list shows a part of the results. Single values are uncertain here, since repeats match poorly.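 HEK293T cells were given each compound shortly before transfection with a reporter in which red mCherry is followed by the SARS-CoV-2 frameshift element and then GFP in the −1 frame, so GFP appears only after frameshifting.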

What follows are molecules tested on SARS-CoV-2 -1 PRF reporter mCherry-FSE-GFP(-1) (assay: percent effect, decrease of GFP/mCherry ratio (-1 PRF reporter) relative to controls; higher = stronger frameshift inhibition). Conditions: 10 µM; 24 h; HEK293T.

First: CC(=O)OC1CN2CCC1CC2 (stereo not given) [aceclidine]
Second: CC[C@H](C(N)=O)N1CCCC1=O [(R)-(+)-Etiracetam]
The percent effect of the first is higher: -1.88% for the first, -2.45% for the second.

Compared with `O=c1cccc2n1C[C@@H]1CNC[C@H]2C1`, `c1ccc2nc(N3CCNCC3)ccc2c1` [quipazine] is lower in percent effect: 0.702% for the first, -0.952% for the second.

First: CN1CC[C@]23CCCC[C@H]2[C@H]1Cc1ccc(O)cc13 [levorphanol]
Second: O=C1CC[C@@]2(O)[C@H]3Cc4ccc(O)c5c4[C@@]2(CCN3CC2CC2)[C@H]1O5 [naltrexone]
The percent effect of the first is lower: -1.69% for the first, -0.882% for the second.

Compared with `CO[C@@]12CC[C@@]3(C[C@@H]1[C@](C)(O)C(C)(C)C)[C@H]1Cc4ccc(O)c5c4[C@@]3(CCN1CC1CC1)[C@H]2O5` [Buprenorphine], `Oc1ccc2c3c1O[C@H]1c4[nH]c5ccccc5c4C[C@@]4(O)[C@@H](C2)N(CC2CC2)CC[C@]314` [Naltrindole·HCl] is lower in percent effect: -0.941% for the first, -2.11% for the second.

Going from `Cc1ncc(CNC(=O)N(CCCl)N=O)c(N)n1` [nimustine] to `Cc1ncsc1CCCl` [clomethiazole], the percent effect falls from 1.44% to -11.7%.

Compared with `CCC1(c2ccccc2)C(=O)NC(=O)N(C(=O)c2ccccc2)C1=O` (stereo not given) [benzobarbital], `CC(CC(C(N)=O)(c1ccccc1)c1ccccc1)N(C)C` (stereo not given) [dimevamide] is lower in percent effect: 1.42% for the first, -5.63% for the second.

Going from `CC(=O)N(C)c1cccc(-c2ccnc3c(C(=O)c4cccs4)cnn23)c1` [indiplon] to `CN=C1CN(O)C(c2ccccc2)=c2cc(Cl)ccc2=N1` [Libritabs], the percent effect rises from -2.77% to 6.39%.

First: C[N+]1(C)[C@@H]2C[C@@H](OC(=O)[C@H](CO)c3ccccc3)C[C@H]1[C@@H]1O[C@@H]12
Second: CC(C)(N)Cc1ccccc1 [phentermine]
The percent effect of the first is higher: -2.07% for the first, -4.02% for the second.

First: CNCC(=O)c1ccc(O)c(O)c1 [adrenalone]
Second: C[C@H](N)[C@H](O)c1ccc(O)c(O)c1
The percent effect of the first is higher: -1.25% for the first, -6.9% for the second.

Going from `CCNC1=Nc2ccc(Cl)cc2C(C)(c2ccccc2)O1` (stereo not given) [etifoxine] to `CC1=CC(=O)N2CC(=O)N(C)c3ccc(Cl)cc3C2(c2ccccc2)O1` (stereo not given) [ketazolam], the percent effect rises from -6.56% to 2.55%.

Compared with `CC[C@@H](C)C(=O)O[C@H]1[C@H](O)[C@H]2[C@@H](CN3C[C@@H](C)CC[C@H]3[C@@]2(C)O)[C@@H]2C[C@]34O[C@]5(O)[C@@H](OC(=O)[C@@](C)(O)CC)CC[C@@]3(C)[C@@H]5[C@@H](OC(C)=O)[C@@H](OC(C)=O)[C@H]4[C@@]21O`, `C[C@]1(O)CC[C@H]2[C@@H]3CCC4=CC(=O)CC[C@]4(C)[C@@]3(F)[C@@H](O)C[C@@]21C` [fluoxymesterone] is higher in percent effect: -3.51% for the first, 6.12% for the second.

Compared with `CCOC(=O)C(c1c(O)c2ccccc2oc1=O)c1c(O)c2ccccc2oc1=O` [ethyl biscoumacetate], `CCC(=O)C(CC(C)N(C)C)(c1ccccc1)c1ccccc1` (stereo not given) [Amidone] is lower in percent effect: -0.961% for the first, -5.52% for the second.

Going from `O=[N+]([O-])O[C@H]1CO[C@H]2[C@@H]1OC[C@H]2O[N+](=O)[O-]` [isosorbide dinitrate] to `C#C[C@]1(O)CC[C@H]2[C@@H]3CCC4=C[C@@H](O)CC[C@@H]4[C@H]3CC[C@@]21C` [etynodiol], the percent effect rises from -3.53% to 2.82%.

Going from `CC(O)CN1CCN(CC(=O)[O-])CCN(CC(=O)[O-])CCN(CC(=O)[O-])CC1.[Gd+3]` (stereo not given) [gadoteridol] to `CCCCC1C(=O)NC(=O)N(C2CCCCC2)C1=O` (stereo not given) [bucolome], the percent effect falls from 0.909% to -2.9%.

Compared with `c1ccc2c(c1)OCC(C1=NCCN1)O2` (stereo not given) [Idazoxan·HCl], `Fc1cccc(Br)c1NC1=NCCN1` [romifidine] is lower in percent effect: -3.45% for the first, -5.89% for the second.

Going from `C#C[C@]1(O)CC[C@H]2[C@@H]3CCC4=CC(=O)CCC4=C3C=C[C@@]21CC` [gestrinone] to `C[C@]12C=CC(=O)C=C1CC[C@@H]1[C@@H]2CC[C@]2(C)OC(=O)CC[C@@H]12` [testolactone], the percent effect rises from -2.01% to 3.76%.

Going from `C=CCN1C[C@H](C(=O)N(CCCN(C)C)C(=O)NCC)C[C@@H]2c3cccc4[nH]cc(c34)C[C@H]21` [cabergoline] to `CC[C@@]1(O)C(=O)OCc2c1cc1n(c2=O)Cc2cc3ccccc3nc2-1` [Camptothecin], the percent effect rises from 0.995% to 9.32%.

Going from `CC(C)C[C@H](CN)CC(=O)O` [pregabalin] to `NCC(O)c1ccc(O)cc1` (stereo not given), the percent effect rises from -2.49% to -0.416%.

First: NC1=NCC(c2ccc(Cl)cc2)O1 (stereo not given) [clominorex]
Second: C#CCN(C)[C@H](C)Cc1ccccc1 [selegiline]
The percent effect of the first is higher: -2.93% for the first, -4.74% for the second.

Compared with `C[CH2][Hg][S]c1ccccc1C(=O)[O-].[Na+]` [thiomersal], `CN(C)[C@@H]1C(=O)C(C(N)=O)=C(O)[C@@]2(O)C(=O)C3=C(O)c4c(O)cccc4[C@@](C)(O)[C@H]3[C@H](O)[C@@H]12` is higher in percent effect: -14.1% for the first, -2.92% for the second.
